Columns and labels:
Type in all cases: cell-based
[1] = tested on: Jurkat T lymphoma cells; assay: Proliferation / viability test, Jurkat T lymphoma cells; conditions: Homo sapiens, linear regression of survival percentage
Protocol: (§1) Cell lines: Human prostate carcinoma (PC-3), human colon carcinoma (HT-29), murine melanoma (B-16) and its drug resistant subclone (B-16 MDR), mouse fibroblasts (3T3), myeloid leukemia (HL 60) and its drug resistant subclone (HL 60 MX2), endometrium cell line (MES SA) and its drug resistant subclone (MES DX5), jurkat T lymphoma and monocyte leukemia (U-937), were used in this study.
(§2) Proliferation of cancer and normal cells: Proliferation was measured by neutral red assay or by a fluorometric assay quantitating DNA content. In the neutral red assay, the neutral red is absorbed by lysosomes, thus causing coloring of living cells. Quantitative analysis is performed by colorimetric assay (ELISA reader at 550 nm). In the fluorometric assay, alamar blue is used as a redox indicator. Alamar blue fluorescence was measured at an excitation wavelength of 544 nm and an emission wavelength of […] (FLUOstar BMG Lab Technologies, Offenburg, Germany).
(§3) The cells were sub-cultured and the tested compounds were added thereto in increasing concentrations. The IC50 values were determined by linear regression of the survival percentage of the cells.

[2] = tested on: U-937; assay: Proliferation test, U-937 cells; conditions: Homo sapiens, linear regression of survival percentage
Protocol: as §1, §2, §3

[3] = tested on: MES SA; assay: Proliferation test, MES SA cells; conditions: Homo sapiens, linear regression of survival percentage
Protocol: as §1, §2, §3

[4] = tested on: MES SA DX5 (MDR); assay: Proliferation test, MES SA DX5 (MDR) cells; conditions: Homo sapiens, linear regression of survival percentage
Protocol: as §1, §2, §3

[5] = tested on: HL 60; assay: Proliferation test, HL 60 cells; conditions: Homo sapiens, linear regression of survival percentage
Protocol: as §1, §2, §3

[6] = tested on: HL 60 MX2 (MDR); assay: Proliferation test, HL 60 MX2 (MDR) cells; conditions: Homo sapiens, HL60/MX2; linear regression of survival percentage
Protocol: as §1, §2, §3

OCCN1CCN(CCCN2c3ccccc3Sc3ccc(C(F)(F)F)cc32)CC1 [Fluphenazine, fluphenazine, reference compound]
IC50 [1]: 14.3 µM | IC50 [2]: 21.5 µM | IC50 [3]: 14.8 µM | IC50 [4]: 13.7 µM | IC50 [5]: 20.9 µM | IC50 [6]: 21.8 µM
